Test results reported in the supplement of paper PMC12823440, “Inhibitors supercharge kinase turnover through native proteolytic circuits” (Nature, 2025).
Counter-ions that a name gives are not always drawn. The list shows a part of the results. The calls rarely recur for the same compound in another form.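 Kinases, fused to nanoluciferase, were expressed in K562 cells; luminescence was measured every 4 h from 2 to 18 h as percent of control (DMSO = 100%, positive control = 0%). A time point is decreased if signal falls significantly (2 sigma). Hits were called by the authors by a rule that is not shown; the count of time points alone does not decide it.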

Amino acid sequences for entries named in this document (tags omitted). A change or cut given only in a name is not applied to a line headed by its entry.
UniProt Q01974, whole entry: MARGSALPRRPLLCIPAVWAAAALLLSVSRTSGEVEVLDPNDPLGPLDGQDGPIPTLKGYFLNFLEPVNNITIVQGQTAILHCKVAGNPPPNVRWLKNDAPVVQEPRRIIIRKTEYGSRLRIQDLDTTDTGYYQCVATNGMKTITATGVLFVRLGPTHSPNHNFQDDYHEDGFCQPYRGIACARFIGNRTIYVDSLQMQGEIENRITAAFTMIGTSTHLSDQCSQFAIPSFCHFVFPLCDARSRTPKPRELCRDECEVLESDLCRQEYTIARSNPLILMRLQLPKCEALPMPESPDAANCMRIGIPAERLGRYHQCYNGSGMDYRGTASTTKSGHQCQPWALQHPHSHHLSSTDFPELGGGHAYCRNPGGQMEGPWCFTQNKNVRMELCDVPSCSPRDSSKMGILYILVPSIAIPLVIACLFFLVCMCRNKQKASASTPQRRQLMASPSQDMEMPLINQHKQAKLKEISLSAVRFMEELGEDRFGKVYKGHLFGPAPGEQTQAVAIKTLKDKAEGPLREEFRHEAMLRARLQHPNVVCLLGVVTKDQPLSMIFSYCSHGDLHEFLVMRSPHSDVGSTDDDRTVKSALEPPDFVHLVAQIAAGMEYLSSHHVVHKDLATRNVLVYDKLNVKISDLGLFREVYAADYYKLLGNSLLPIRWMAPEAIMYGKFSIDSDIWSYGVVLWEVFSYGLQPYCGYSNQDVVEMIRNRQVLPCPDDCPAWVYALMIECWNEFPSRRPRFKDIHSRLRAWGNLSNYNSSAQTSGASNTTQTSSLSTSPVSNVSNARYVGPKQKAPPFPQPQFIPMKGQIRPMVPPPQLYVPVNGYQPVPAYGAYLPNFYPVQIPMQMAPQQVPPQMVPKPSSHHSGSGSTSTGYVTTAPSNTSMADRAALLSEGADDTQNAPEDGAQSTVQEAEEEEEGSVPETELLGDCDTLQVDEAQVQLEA
UniProt Q15418, whole entry: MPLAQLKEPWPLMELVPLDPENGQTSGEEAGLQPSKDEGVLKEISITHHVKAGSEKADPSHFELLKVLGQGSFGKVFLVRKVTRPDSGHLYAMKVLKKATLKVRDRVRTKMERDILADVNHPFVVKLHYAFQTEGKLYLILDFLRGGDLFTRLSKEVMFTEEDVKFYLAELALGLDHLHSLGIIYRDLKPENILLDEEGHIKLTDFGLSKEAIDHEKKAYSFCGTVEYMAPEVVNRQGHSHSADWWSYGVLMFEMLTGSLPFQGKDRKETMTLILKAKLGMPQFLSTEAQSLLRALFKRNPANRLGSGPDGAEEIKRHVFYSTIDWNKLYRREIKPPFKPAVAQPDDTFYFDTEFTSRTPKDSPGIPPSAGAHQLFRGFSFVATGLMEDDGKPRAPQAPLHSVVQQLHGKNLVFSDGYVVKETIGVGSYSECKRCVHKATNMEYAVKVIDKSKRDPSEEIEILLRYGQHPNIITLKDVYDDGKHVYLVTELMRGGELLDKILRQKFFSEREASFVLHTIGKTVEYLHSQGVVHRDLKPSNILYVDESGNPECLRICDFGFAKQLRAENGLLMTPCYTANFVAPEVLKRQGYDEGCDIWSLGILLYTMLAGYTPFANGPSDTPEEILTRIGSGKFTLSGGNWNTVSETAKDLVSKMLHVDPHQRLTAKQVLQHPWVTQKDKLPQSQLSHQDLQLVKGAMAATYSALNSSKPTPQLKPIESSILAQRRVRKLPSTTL
UniProt Q9NYA1, whole entry: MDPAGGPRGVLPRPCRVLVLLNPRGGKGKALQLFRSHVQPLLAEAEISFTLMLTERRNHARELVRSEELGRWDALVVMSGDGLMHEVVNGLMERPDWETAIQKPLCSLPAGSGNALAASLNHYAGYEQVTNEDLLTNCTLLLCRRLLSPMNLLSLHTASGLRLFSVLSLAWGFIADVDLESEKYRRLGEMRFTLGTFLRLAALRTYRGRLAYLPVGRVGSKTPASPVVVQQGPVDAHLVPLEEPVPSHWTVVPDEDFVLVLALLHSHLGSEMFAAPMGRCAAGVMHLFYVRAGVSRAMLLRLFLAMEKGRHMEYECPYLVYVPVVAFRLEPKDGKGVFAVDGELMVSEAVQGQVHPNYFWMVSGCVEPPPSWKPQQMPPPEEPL
UniProt Q9Y6E0: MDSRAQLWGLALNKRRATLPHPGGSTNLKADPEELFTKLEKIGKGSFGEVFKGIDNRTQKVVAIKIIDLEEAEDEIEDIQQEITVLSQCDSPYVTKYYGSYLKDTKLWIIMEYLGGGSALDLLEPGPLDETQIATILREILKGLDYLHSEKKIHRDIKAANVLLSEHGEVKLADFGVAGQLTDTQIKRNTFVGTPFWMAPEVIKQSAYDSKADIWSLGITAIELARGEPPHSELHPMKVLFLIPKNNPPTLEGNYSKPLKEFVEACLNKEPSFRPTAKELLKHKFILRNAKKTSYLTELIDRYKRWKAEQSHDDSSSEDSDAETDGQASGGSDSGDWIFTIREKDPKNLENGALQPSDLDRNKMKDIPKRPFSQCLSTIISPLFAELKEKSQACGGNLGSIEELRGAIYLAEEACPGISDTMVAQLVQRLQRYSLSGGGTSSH
UniProt Q15208: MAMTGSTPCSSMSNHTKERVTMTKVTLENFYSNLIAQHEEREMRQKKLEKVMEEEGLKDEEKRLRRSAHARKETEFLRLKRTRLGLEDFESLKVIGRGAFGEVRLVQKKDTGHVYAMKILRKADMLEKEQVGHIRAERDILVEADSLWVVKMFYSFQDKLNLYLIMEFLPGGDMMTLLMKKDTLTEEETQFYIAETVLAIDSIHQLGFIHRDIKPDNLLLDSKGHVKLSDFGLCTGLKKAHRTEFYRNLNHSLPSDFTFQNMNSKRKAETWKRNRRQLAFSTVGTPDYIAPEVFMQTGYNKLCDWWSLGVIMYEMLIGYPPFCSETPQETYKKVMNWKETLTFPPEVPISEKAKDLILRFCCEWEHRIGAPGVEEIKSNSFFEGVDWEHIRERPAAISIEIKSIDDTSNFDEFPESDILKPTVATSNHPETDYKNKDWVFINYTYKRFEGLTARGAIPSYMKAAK
UniProt P42680: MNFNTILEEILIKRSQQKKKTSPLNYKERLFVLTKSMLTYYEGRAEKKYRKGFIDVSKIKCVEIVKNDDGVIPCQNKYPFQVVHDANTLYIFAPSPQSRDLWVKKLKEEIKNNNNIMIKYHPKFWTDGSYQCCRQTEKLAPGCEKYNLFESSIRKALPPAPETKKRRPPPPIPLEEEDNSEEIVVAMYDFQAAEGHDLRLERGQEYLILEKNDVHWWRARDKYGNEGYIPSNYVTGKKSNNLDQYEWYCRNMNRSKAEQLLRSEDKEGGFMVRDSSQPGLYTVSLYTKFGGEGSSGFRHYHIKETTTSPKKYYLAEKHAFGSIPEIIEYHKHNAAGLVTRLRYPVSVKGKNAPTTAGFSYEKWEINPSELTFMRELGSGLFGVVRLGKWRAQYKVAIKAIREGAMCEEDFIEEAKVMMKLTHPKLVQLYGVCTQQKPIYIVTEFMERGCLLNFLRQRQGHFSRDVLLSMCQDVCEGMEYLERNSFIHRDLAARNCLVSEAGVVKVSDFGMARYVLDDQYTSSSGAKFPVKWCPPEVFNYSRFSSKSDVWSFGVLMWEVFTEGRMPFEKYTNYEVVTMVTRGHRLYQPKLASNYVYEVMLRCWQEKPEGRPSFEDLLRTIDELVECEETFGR
UniProt P29597: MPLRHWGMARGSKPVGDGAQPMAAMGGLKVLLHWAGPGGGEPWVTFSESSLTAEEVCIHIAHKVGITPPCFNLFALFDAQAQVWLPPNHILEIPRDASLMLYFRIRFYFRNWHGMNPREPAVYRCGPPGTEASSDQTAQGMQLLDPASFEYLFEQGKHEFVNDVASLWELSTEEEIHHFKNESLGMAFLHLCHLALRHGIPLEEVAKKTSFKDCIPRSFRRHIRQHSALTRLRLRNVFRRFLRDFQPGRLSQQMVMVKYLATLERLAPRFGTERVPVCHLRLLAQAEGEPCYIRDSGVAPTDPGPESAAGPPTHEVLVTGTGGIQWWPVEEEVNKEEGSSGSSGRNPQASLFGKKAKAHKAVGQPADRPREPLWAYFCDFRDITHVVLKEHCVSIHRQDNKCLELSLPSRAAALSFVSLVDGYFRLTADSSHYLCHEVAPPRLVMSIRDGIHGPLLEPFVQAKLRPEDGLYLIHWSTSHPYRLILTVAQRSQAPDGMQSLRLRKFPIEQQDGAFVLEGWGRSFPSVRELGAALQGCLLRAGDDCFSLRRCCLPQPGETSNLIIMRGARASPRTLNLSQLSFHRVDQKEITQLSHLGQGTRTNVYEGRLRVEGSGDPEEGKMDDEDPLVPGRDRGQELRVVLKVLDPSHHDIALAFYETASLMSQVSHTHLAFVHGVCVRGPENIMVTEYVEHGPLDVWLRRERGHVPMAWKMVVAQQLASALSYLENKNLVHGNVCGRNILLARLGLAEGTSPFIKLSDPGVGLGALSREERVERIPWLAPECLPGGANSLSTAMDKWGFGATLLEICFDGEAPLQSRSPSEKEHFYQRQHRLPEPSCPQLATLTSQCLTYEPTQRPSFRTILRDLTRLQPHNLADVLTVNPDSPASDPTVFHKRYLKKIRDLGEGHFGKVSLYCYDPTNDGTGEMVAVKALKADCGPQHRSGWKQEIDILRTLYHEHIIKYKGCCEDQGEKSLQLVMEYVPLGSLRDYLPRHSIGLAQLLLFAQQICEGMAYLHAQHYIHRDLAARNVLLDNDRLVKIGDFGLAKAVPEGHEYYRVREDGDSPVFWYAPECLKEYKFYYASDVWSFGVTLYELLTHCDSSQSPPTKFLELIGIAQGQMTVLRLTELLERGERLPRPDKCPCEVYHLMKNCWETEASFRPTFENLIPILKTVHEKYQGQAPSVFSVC
UniProt Q6PHR2: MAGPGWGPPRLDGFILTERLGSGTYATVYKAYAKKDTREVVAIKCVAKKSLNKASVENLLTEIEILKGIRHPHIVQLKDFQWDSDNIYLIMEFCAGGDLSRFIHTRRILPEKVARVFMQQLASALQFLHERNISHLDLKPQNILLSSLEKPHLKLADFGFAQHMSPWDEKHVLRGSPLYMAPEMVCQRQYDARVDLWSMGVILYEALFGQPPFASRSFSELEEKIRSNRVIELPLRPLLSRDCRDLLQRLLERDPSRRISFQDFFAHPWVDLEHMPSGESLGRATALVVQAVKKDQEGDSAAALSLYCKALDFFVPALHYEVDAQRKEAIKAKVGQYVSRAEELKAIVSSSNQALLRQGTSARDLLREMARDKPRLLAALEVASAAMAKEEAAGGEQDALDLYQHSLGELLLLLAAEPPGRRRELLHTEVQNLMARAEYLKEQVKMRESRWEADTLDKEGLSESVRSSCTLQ

Experiments:
Assay in all cases: number of time points (of 5) at which kinase-Nluc abundance scored as decreased, DMSO-normalised (count); higher = more persistent destabilization
Conditions in all cases: K562; 2-18 h
ROR2 = ROR2 (UniProt Q01974)
RPS6KA1 = RPS6KA1 (UniProt Q15418)
SPHK1 = SPHK1 (UniProt Q9NYA1)
SRC = SRC (UniProt P12931)
STK24 = STK24 (UniProt Q9Y6E0)
STK38 = STK38 (UniProt Q15208)
SYK = SYK (UniProt P43405)
TEC = TEC (UniProt P42680)
TYK2 = TYK2 (UniProt P29597)
ULK3 = ULK3 (UniProt Q6PHR2)

SMILES | number of time points (ROR2) | number of time points (RPS6KA1) | number of time points (SPHK1) | number of time points (SRC) | number of time points (STK24) | number of time points (STK38) | number of time points (SYK) | number of time points (TEC) | number of time points (TYK2) | number of time points (ULK3)
C=CC(=O)Nc1cccc(Oc2nc(Nc3ccc(N4CCN(C)CC4)cc3)nc3ccsc23)c1 [Olmutinib] (2.5 µM) | 0 | 0 | 0 | 0 | 0 | 0 | 0 | 0 | 0 | 0
CCS(=O)(=O)c1ccc(Oc2cc(O[C@@H](C)CO)cc(C(=O)Nc3ccn(C)n3)c2)cn1 (10 µM) | 0 | 0 | 0 | 0 | 0 | 0 | 0 | 0 | 0 | 0
O=S(=O)(N=Cc1c(O)ccc2ccccc12)c1cccs1 (10 µM) | 0 | 0 | 0 | 0 | 0 | 0 | 0 | 0 | 0 | 0
O=c1cc(-c2ccc(O)cc2)oc2cc(O)c([C@@H]3O[C@H](CO)[C@@H](O)[C@H](O)[C@H]3O)c(O)c12 [Isovitexin] (10 µM) | 0 | 0 | 0 | 0 | 0 | 0 | 0 | 0 | 0 | 0
COc1cc(/C=C/c2ccc(NC(=O)/C=C/c3cc(OC)c(OC)c(OC)c3)cc2)cc(OC)c1 (2.5 µM) | 0 | 0 | 0 | 0 | 0 | 0 | 0 | 0 | 0 | 0
C=CC(=O)N1CCC[C@@H](n2c(=O)n(-c3ccc(Oc4ccccc4)cc3)c3c(N)nccc32)C1 [Tolebrutinib] (10 µM) | 0 | 0 | 0 | 0 | 0 | 0 | 0 | 0 | 0 | 0
CC(C)(O)c1cc(Nc2cc(Oc3cn(C4CC4)nc3C3CCOCC3)ccn2)ccn1 (10 µM) | 0 | 0 | 0 | 0 | 0 | 0 | 0 | 0 | 0 | 0
CN(C)C(=O)c1cc2cnc(Nc3ccc(NC(=O)C4(C(=O)Nc5ccc(F)cc5)CC4)cc3)nc2n1C1CCCC1 (2 µM) | 0 | 0 | 0 | 2 | 0 | 0 | 0 | 0 | 3 | 0
CC(C)(C)NS(=O)(=O)c1cncc(-c2cc(F)c3nc(N)nn3c2)c1 (10 µM) | 1 | 0 | 0 | 0 | 0 | 0 | 0 | 0 | 0 | 0
CC(=O)NCC(=O)N[C@@H](C)C(=O)N[C@@H](CCC(N)=O)C(=O)N[C@@H](Cc1ccccc1)C(=O)N[C@@H](CO)C(=O)N[C@@H](CCCCN)C(=O)N[C@H](C(=O)N[C@@H](C)C(=O)N[C@@H](C)C(=O)N[C@@H](CCCCN)C(=O)O)[C@@H](C)O (10 µM) | 0 | 0 | 0 | 0 | 0 | 0 | 0 | 0 | 0 | 0
CC(C)n1nc(C#Cc2ccccc2)c2c(N)ncnc21 (10 µM) | 0 | 0 | 0 | 0 | 0 | 0 | 0 | 0 | 0 | 2
Cc1occ2c1C(=O)c1c(O)ccc(O)c1C2 (2.5 µM) | 0 | 0 | 0 | 0 | 0 | 0 | 0 | 0 | 0 | 0
COc1ccc(COc2cc3oc(=O)c4cc(C(C)O)ccc4c3cc2OC)cc1 (stereo not given) [Palomid 529] (2.5 µM) | 0 | 0 | 0 | 0 | 0 | 0 | 0 | 0 | 0 | 0
CC(C)[C@H](CO)Nc1nc(Nc2ccc(C(=O)O)c(Cl)c2)c2ncn(C(C)C)c2n1 [Purvalanol B] (10 µM) | 0 | 0 | 0 | 0 | 0 | 0 | 0 | 0 | 0 | 0
CCc1ccc(NC(=O)Nc2ccccc2)cc1 (10 µM) | 0 | 0 | 0 | 0 | 0 | 0 | 0 | 0 | 0 | 0
CCN1C(C)(C)CC(Oc2ccc(C(=O)Nc3ccc(NC(=O)Nc4cc(C(C)(C)C)on4)cc3)nc2)CC1(C)C (10 µM) | 0 | 0 | 0 | 0 | 0 | 0 | 0 | 0 | 0 | 0
COc1cccc2cc(-c3nc([C@H]4CC[C@H](C(=O)O)CC4)n4ncnc(N)c34)[nH]c12 (2.5 µM) | 0 | 0 | 0 | 0 | 0 | 0 | 0 | 0 | 4 | 1
O=C(CC(c1ccccc1)C(C(=O)O)C(=O)O)c1ccc(C(F)(F)F)cc1 (stereo not given) (10 µM) | 0 | 0 | 0 | 0 | 0 | 0 | 0 | 0 | 0 | 0
O=C(Nc1nc2cccc(-c3ccc(CN4CCS(=O)(=O)CC4)cc3)n2n1)C1CC1 [Filgotinib] (2.5 µM) | 0 | 0 | 0 | 0 | 0 | 0 | 0 | 0 | 0 | 0
CCC(=O)N1CC[C@H](Nc2ncnc3c2CN(c2cnc(OC)c(C(F)(F)F)c2)CC3)C1 [Leniolisib] (10 µM) | 0 | 0 | 0 | 0 | 0 | 0 | 0 | 0 | 0 | 0
COc1cc(-c2cc(-c3cccc(O)c3)cnc2N)cc(OC)c1OC (2.5 µM) | 0 | 0 | 0 | 0 | 0 | 0 | 0 | 0 | 2 | 3
O=C(N/N=C/c1ccc([N+](=O)[O-])o1)c1ccc(O)cc1 [Nifuroxazide] (10 µM) | 0 | 0 | 0 | 0 | 0 | 0 | 0 | 2 | 3 | 3
COc1ccc(S(=O)(=O)N(CCO)c2ccccc2CN(C)CC=Cc2ccc(Cl)cc2)cc1 (2.5 µM) | 0 | 0 | 0 | 0 | 0 | 0 | 0 | 0 | 0 | 0
O=C1NCCSc2c1sc1ccc(O)cc21 (2.5 µM) | 0 | 0 | 0 | 0 | 0 | 0 | 0 | 0 | 0 | 0
CC(C)=C/C=C1\O[C@@H]2CC(C)=CC(=O)[C@@H]2[C@]1(C)O [Bisabolangelone] (10 µM) | 0 | 0 | 0 | 0 | 0 | 0 | 0 | 0 | 0 | 0
O=c1sn(-c2cccc3ccccc23)c(=O)n1Cc1ccccc1 [Tideglusib] (10 µM) | 0 | 0 | 0 | 0 | 0 | 0 | 0 | 0 | 0 | 0

SMILES | number of time points (ROR2) | number of time points (RPS6KA1) | number of time points (SPHK1) | number of time points (SRC) | number of time points (STK24) | number of time points (STK38) | number of time points (SYK) | number of time points (TEC) | number of time points (TYK2) | number of time points (ULK3)
COc1ccc(C(=O)c2cn(C(C)C)c3ncnc(N)c23)cc1NC(=O)Nc1ccc(Cl)cc1Cl (10 µM) | 0 | 0 | 0 | 0 | 0 | 0 | 0 | 0 | 0 | 0
COc1cc(-c2cnc(N)c(-c3ccc(NC(=O)c4cn(CC5CCOCC5)cc(-c5ccc(C)cn5)c4=O)cc3F)c2)ccc1OC[C@H]1COCCO1 [DS-1205b (free base)] (10 µM) | 0 | 0 | 0 | 0 | 0 | 0 | 0 | 0 | 0 | 0
C[C@@H]1CN(Cc2cn[nH]c2-c2ccc(C#N)cc2)CCN1c1ccc(C(F)(F)F)cn1 (2.5 µM) | 0 | 0 | 0 | 0 | 0 | 0 | 0 | 0 | 0 | 0
CN1CCN(c2ccc(NC(=O)c3ccc(C#N)o3)c(N3CCCCC3)c2)CC1 (10 µM) | 0 | 0 | 0 | 0 | 0 | 0 | 0 | 0 | 0 | 0
O=c1[nH]nc(Sc2ncc([N+](=O)[O-])s2)n1-c1ccc2c(c1)OCCO2 (2.5 µM) | 0 | 0 | 0 | 0 | 0 | 0 | 0 | 0 | 0 | 0
C[C@H]1CNC(=O)c2cnn3ccc(nc23)N[C@H](C)c2cc(F)ccc2O1 [Repotrectinib] (2.5 µM) | 0 | 0 | 1 | 0 | 0 | 0 | 0 | 0 | 1 | 2
C[C@H](Nc1ccc2c(c1)OCCn1cc(N3C(=O)OC[C@H]3C(F)F)nc1-2)C(N)=O (10 µM) | 0 | 0 | 0 | 0 | 0 | 0 | 0 | 0 | 0 | 0
C=CC(=O)Nc1cccc(Nc2nc(Nc3ccc(Oc4ccnc(C(=O)NC)c4)cc3)ncc2F)c1 (2.5 µM) | 0 | 0 | 0 | 0 | 0 | 0 | 0 | 0 | 0 | 0
COc1c(OCCCN2CCOCC2)ccc2c3n(c(=NC(=O)c4cnc(N)nc4)nc12)CCN3 [Copanlisib (dihydrochloride)] (10 µM) | 0 | 0 | 1 | 0 | 0 | 2 | 1 | 3 | 4 | 4
N#Cc1c[nH]c2ccc(-c3ccc(-c4c(O)cccc4O)cc3)cc12 (10 µM) | 0 | 0 | 0 | 0 | 0 | 0 | 0 | 0 | 0 | 0
O=C(CCc1ccc2n1[B-](F)(F)[N+]1=C(c3ccc[nH]3)C=CC1=C2)ON1C(=O)CCC1=O [Py-BODIPY-NHS ester] (2.5 µM) | 0 | 0 | 0 | 0 | 0 | 0 | 0 | 0 | 0 | 0
Cc1ccc(-c2csc(Cn3nc(CC4OCCCO4)c4ccccc4c3=O)n2)cc1 (10 µM) | 0 | 0 | 0 | 0 | 0 | 0 | 0 | 0 | 0 | 0
Cc1cc(Nc2ncc(Cl)c(Nc3ccccc3S(=O)(=O)C(C)C)n2)c(OC(C)C)cc1C1CCN(CC(=O)NCCNc2cccc3c2C(=O)N(C2CCC(=O)NC2=O)C3=O)CC1 (stereo not given) (10 µM) | 0 | 0 | 0 | 0 | 0 | 0 | 0 | 0 | 0 | 0
O=C(Nc1ncc(SCCN2CCCC2)s1)[C@]1(c2ccc(S(=O)(=O)C3CC3)cc2)C[C@H]1C1CCCCC1 [Globalagliatin] (2.5 µM) | 0 | 0 | 0 | 0 | 0 | 0 | 0 | 0 | 0 | 0
C[C@@]12CCc3occc3[C@H]1CC[C@@]13C[C@@H](CC[C@H]12)[C@@](O)(CO)C3 [Cafestol] (10 µM) | 0 | 0 | 0 | 0 | 0 | 0 | 0 | 0 | 0 | 0
C=CC(=O)Nc1cc(C(=O)NC)cc(-c2n[nH]c3ccccc23)c1 (10 µM) | 0 | 0 | 0 | 0 | 0 | 0 | 0 | 3 | 0 | 0
Clc1ccc(Nc2cccc(-c3cn[nH]c3)c2)cc1 (10 µM) | 0 | 0 | 0 | 0 | 0 | 0 | 0 | 0 | 0 | 0
COc1ccc2c(c1)C[C@H](C(=O)Nc1ccc(-c3cn[nH]c3)cc1OCCN(C)C)CO2 [Chroman 1] (10 µM) | 0 | 0 | 0 | 0 | 0 | 0 | 0 | 0 | 0 | 0
NC(=O)c1cccc2c(N[C@H](CN3CCC3)c3ccc(Cl)c(C(F)(F)F)c3)ncnc12 (10 µM) | 0 | 0 | 0 | 0 | 0 | 0 | 0 | 0 | 0 | 0
CC1=C(C(=O)Nc2ccc3[nH]ncc3c2)C(c2ccc(F)c(C(=O)NCc3ccccn3)c2)NC(=O)N1 (stereo not given) (10 µM) | 0 | 0 | 0 | 0 | 0 | 0 | 0 | 0 | 0 | 0
CC(C)(O)c1cc2nc(-c3cnc(N)nc3)nc(N3CCOCC3)c2s1 (2.5 µM) | 0 | 0 | 0 | 0 | 0 | 0 | 0 | 0 | 4 | 0
Cc1c(Br)c(Br)c2c3c1nc(N1CCNCC1)n3CCC2 [SEL120-34A (monohydrochloride)] (2.5 µM) | 0 | 0 | 0 | 0 | 0 | 0 | 0 | 0 | 0 | 0
O=C(Nc1nccs1)C(c1cc(F)ccc1O)N1Cc2ccc(-c3ccc(N4CCNCC4)cc3)cc2C1=O (racemic) (10 µM) | 0 | 0 | 0 | 0 | 0 | 0 | 0 | 0 | 0 | 0
Cc1cc([N+](=O)[O-])c(NS(=O)(=O)c2cccc(C(=O)O)c2)cc1-c1cccnc1 [Alofanib] (10 µM) | 0 | 0 | 0 | 0 | 0 | 0 | 0 | 0 | 0 | 0
COc1cc2nccc(Oc3ccc(NC(=O)Nc4ccc(F)cc4F)c(F)c3)c2cc1OC (10 µM) | 0 | 0 | 0 | 0 | 0 | 0 | 0 | 0 | 1 | 0
